These are yes or no findings as the source states them, for the method shown. Binding seen in cells or lysates may run through a third protein. Some results given as binding are weak or reduced against the parent protein; the word gives no strength. For part of these data: Where a sequence is shown, tags or fusion partners need not be part of it. Blank lines part the entries; values can stand above or below the binder they belong to.
Legend:
[1] = biological target: TNF receptor-associated factor 4 (TRAF4), overexpressed tagged form (UniProt Q9BUZ4); experiment: co-IP; lysates of HEK293T transfectants with combinations of plasmids; immunoprecipitation with anti-HA tag antibody-conjugated agarose beads, anti-DYKDDDDK tag beads as negative control; blots with anti-HA, anti-Myc or anti-albumin antibody
[2] = biological target: integrin-β1, endogenous (intrinsic) in MDA-MB-231 cells (human (endogenous in MDA-MB-231)) (UniProt P05556); experiment: co-IP; extracts of MDA-MB-231/LOXL4 wt-overexpressing cells; endogenous integrin-β1 captured with biotinylated anti-integrin-β1 antibody and streptavidin-agarose; bio-control IgG as negative control; blots of the precipitates
[3] = biological target: integrin-β1, endogenous (intrinsic) in MDA-MB-231 cells (human (endogenous in MDA-MB-231)) (UniProt P05556); experiment: co-IP; extract of MDA-MB-231 parental cells; endogenous integrin-β1 captured with biotinylated anti-integrin-β1 antibody and streptavidin-agarose; bio-control IgG as negative control; blots of the precipitates

binding [1]: binds
B1: TGF-β activated kinase 1 (TAK1), overexpressed tagged form (enzyme, UniProt O43318 1-606)
chain: MSTASAASSSSSSSAGEMIEAPSQVLNFEEIDYKEIEVEEVVGRGAFGVVCKAKWRAKDVAIKQIESESERKAFIVELRQLSRVNHPNIVKLYGACLNPVCLVMEYAEGGSLYNVLHGAEPLPYYTAAHAMSWCLQCSQGVAYLHSMQPKALIHRDLKPPNLLLVAGGTVLKICDFGTACDIQTHMTNNKGSAAWMAPEVFEGSNYSEKCDVFSWGIILWEVITRRKPFDEIGGPAFRIMWAVHNGTRPPLIKNLPKPIESLMTRCWSKDPSQRPSMEEIVKIMTHLMRYFPGADEPLQYPCQYSDEGQSNSATSTGSFMDIASTNTSNKSDTNMEQVPATNDTIKRLESKLLKNQAKQQSESGRLSLGASRGSSVESLPPTSEGKRMSADMSEIEARIAATTAYSKPKRGHRKTASFGNILDVPEIVISGNGQPRRRSIQDLTVTGTEPGQVSSRSSSPSVRMITTSGPTSEKPTRSHPWTPDDSTDTNGSDNSIPMAYLTLDHQLQPLAPCPNSKESMAVFEQHCKMAQEYMKVQTEIALLLQRKQELVAELDQDEKDQQNTSRLVQEHKKLLDENKSLSTYYQQCKKQLEVIRSQQQKRQGTS

binding [2]: binds | binding [3]: binds weakly
B2: TGF-β activated kinase 1 (TAK1), endogenous in MDA-MB-231 cells (enzyme, UniProt O43318 1-606)
chain: B1 chain

Reference: paper PMC11165029
